PubChem BioAssay AID540256 (National Center for Advancing Translational Sciences (NCATS), 2011)
The whole screen tested about 300,000 compounds, of which about 3,700 (1.2%) were called active. Inconclusive means that the source gave no clear call. Such entries were picked first, then a sample of the others. The call rests on the fitted dose curve; tested in HEK293 cells. A potency beside an inconclusive call is a rough fit, not a confirmed value.

Test: qHTS for Inhibitors of binding or entry into cells for Lassa Virus; further: nearly all actives have a fitted effect of over 50% in size
Conditions: Lassa virus pseudotype entry inhibition, cell reporter; activity change, negative = inhibition: at 37.9 µM (top of the series) unless noted
On the % scale 0 is the no-effect control and ±100 the full control effect; potency means the concentration at half of the fitted maximal effect.

Q: Which Potency does the source give for `COc1ccc([N+](=O)[O-])cc1NC(=O)CCS(=O)(=O)c1ccc(Br)cc1` here?
A: Its Potency is “inactive”.

Q: Which Potency does the source give for `Clc1ccc(CN2CCN(c3ncccn3)CC2)cc1Cl` here?
A: The Potency was “inactive”.

Q: For `Cc1ccc(OP(=O)(Nc2c(C)n(C)n(-c3ccccc3)c2=O)Oc2ccc(C)cc2)cc1`, which Potency is on record?
A: The Potency was inconclusive: 13 µM [inhibitor, single point].

Q: For `CCOC(=O)c1cc(C(C)(C)C)oc1CNC(=O)c1c(C)oc2c1CCCC2`, which Potency is on record?
A: Its Potency is inconclusive: 29.1 µM [inhibitor, single point].

Q: Which Potency does the source give for `Cc1ccc(NC(=O)CS(=O)CC(=O)Nc2ccc(N3CCOCC3)cc2)cc1Cl` (configuration not stated) here?
A: Its Potency is inconclusive: 0.259 µM [inhibitor, single point].

Q: For `O=C(CN1CCN(Cc2ccc(Cl)cc2)CC1)N1CCc2ccccc21`, which Potency is on record?
A: Its Potency is “inactive”.

Q: Which Potency does the source give for `O=c1/c(=C/c2ccc(O)c([N+](=O)[O-])c2)sc2nc3ccccc3n12` here?
A: Its Potency is inconclusive: 2.51 µM [activator, full curve, poor fit].

Q: Which Potency does the source give for `CCCCc1ccc(NC(=O)OC)cc1` here?
A: Its Potency is inconclusive: 3.55 µM [activator, partial curve, poor fit].

Q: With `CCC(CC)COC(=O)C1=C(C)NC(=O)NC1c1ccc(OC)cc1` (configuration not stated) as the molecule, how does the Potency read?
A: The Potency was inconclusive: 5.01 µM [inhibitor, partial curve].

Q: With `Cc1nn(-c2ccc3nnc(C)n3n2)c(C)c1CCC(=O)Nc1ccc(OC(F)(F)F)cc1` as the molecule, how does the Potency read?
A: The Potency was inconclusive: 2.82 µM [inhibitor, single point].

Q: With `CCOc1ccc(CCNC(=O)c2cc3sccc3n2C)cc1OCC` as the molecule, how does the Potency read?
A: The Potency was “inactive”.

Q: With `COC(=O)Nc1nnc(-c2ccccc2Cl)s1` as the molecule, how does the Potency read?
A: Its Potency is inconclusive: 35.5 µM [inhibitor, single point].

Q: For `Cc1cc(C(=O)NC(C)c2ccncc2)no1` (configuration not stated), which Potency is on record?
A: Its Potency is inconclusive: 29.1 µM [activator, single point].

Q: With `CC(=O)c1ccc(NC(=O)c2ccc(-c3nc(COc4ccc(C)cc4)c(C)o3)cc2)cc1` as the molecule, how does the Potency read?
A: Its Potency is inconclusive: 5.62 µM [activator, full curve, poor fit].

Q: For `CS(=O)(=O)c1nc(-c2ccc(Br)cc2)cc(-c2ccccc2)c1C#N`, which Potency is on record?
A: The Potency was active: 5.8 µM.

Q: Which Potency does the source give for `CC(=O)Oc1c2occc2cc2ccc(=O)oc12` here?
A: Its Potency is inconclusive: 1.26 µM [inhibitor, partial curve, poor fit].

Q: With `Cc1ccc2nc(NC(=O)CN3C(=O)C4CC=CCC4C3=O)sc2c1` (configuration not stated) as the molecule, how does the Potency read?
A: Its Potency is inconclusive: 1 µM [inhibitor, full curve, poor fit].

Q: For `COc1cccc(OCCCOc2ccc([N+](=O)[O-])cc2Cl)c1`, which Potency is on record?
A: Its Potency is “inactive”.

Q: Which Potency does the source give for `Cc1ccc(-n2ncc3c(Nc4ccccc4C)ncnc32)cc1` here?
A: Its Potency is “inactive”.

Q: For `COc1cccc(/C=N/NC(=O)C(=O)Nc2ccccc2OC(F)(F)C(F)F)c1O`, which Potency is on record?
A: Its Potency is inconclusive: 11.2 µM [inhibitor, partial curve, poor fit].

Q: For `CCN1CCCc2cc(CN(CCN3CCOCC3)C(=S)Nc3cccc(Cl)c3)ccc21`, which Potency is on record?
A: The Potency was inconclusive: 5.62 µM [inhibitor, full curve, poor fit].

Q: For `CN(/C(=N/S(=O)(=O)c1cccs1)c1ccccc1)c1ccccc1`, which Potency is on record?
A: The Potency was “inactive”.

Q: With `Cc1cc(C(=O)OCC(=O)NC2CCS(=O)(=O)C2)c2ccccc2n1` (configuration not stated) as the molecule, how does the activity change, negative = inhibition read?
A: Its activity change, negative = inhibition is inconclusive: 1.76% [activator].

Q: With `CC1CCN(S(=O)(=O)c2ccc(NC(=O)Cc3ccccc3)cc2)CC1` as the molecule, how does the Potency read?
A: The Potency was “inactive”.

Q: Which Potency does the source give for `NC(CSC(c1ccccc1)(c1ccccc1)c1cccc2ccccc12)C(=O)O` (configuration not stated) here?
A: The Potency was “inactive”.

Q: For `CC(C)(C)c1ccc(S(=O)(=O)N2CCN(C(=O)C3CCC3)CC2)cc1`, which Potency is on record?
A: Its Potency is inconclusive: 5.62 µM [inhibitor, single point].

Q: For `O=c1c2ccccc2nc(-c2ccc(F)cc2)n1NCc1ccccc1O`, which Potency is on record?
A: The Potency was “inactive”.

Q: For `COc1ccccc1-c1cc(C(F)(F)F)nc(S(C)(=O)=O)n1`, which Potency is on record?
A: The Potency was inconclusive: 29.1 µM [inhibitor, single point].

Q: With `COc1ccc(C2CC(c3ccccc3)=NN2c2ccc(S(N)(=O)=O)cc2)cc1OC` (configuration not stated) as the molecule, how does the Potency read?
A: Its Potency is active: 11.2 µM.

Q: With `O=C(O/N=C1\CCS(=O)(=O)c2sccc21)c1ccc(F)cc1` as the molecule, how does the Potency read?
A: Its Potency is “inactive”.

Q: With `COc1cccc(C(=O)N2CCCC(c3nc(-c4cccs4)no3)C2)c1` (configuration not stated) as the molecule, how does the Potency read?
A: Its Potency is “inactive”.

Q: For `Cc1cccc(C)c1NC(=O)Cn1c(=O)n(Cc2ccco2)c(=O)c2ccc(C(=O)NC3CCCC3)cc21`, which Potency is on record?
A: Its Potency is inconclusive: 5.62 µM [inhibitor, single point].

Q: With `Cc1ccc(NC(=O)Cn2c(=O)n(Cc3nc(C)no3)c(=O)c3cc4c(cc32)OCO4)c(Cl)c1` as the molecule, how does the Potency read?
A: The Potency was “inactive”.

Q: Which Potency does the source give for `O=C(Nc1ccc(Cl)cc1)Nc1ccc(N2CCOCC2)cc1` here?
A: Its Potency is “inactive”.

Q: With `Cc1cccc(-c2nc3c(c(=O)c4ccccc4n3C)c(=O)n2-c2ccccc2)c1` as the molecule, how does the Potency read?
A: The Potency was inconclusive: 6.31 µM [inhibitor, single point].

Q: For `CC(=O)Nc1ccc(C(=O)N(C)C(C(=O)Nc2ccc(C)cc2)c2ccccn2)cc1` (configuration not stated), which Potency is on record?
A: The Potency was “inactive”.

Q: With `CCC(=O)N1CCc2cc(S(=O)(=O)NC(CC(C)C)C(=O)NCc3ccc(F)cc3)ccc21` (configuration not stated) as the molecule, how does the Potency read?
A: Its Potency is “inactive”.

Q: With `CCC(CC)c1nnc(NC(=O)c2cc([N+](=O)[O-])ccc2N2CCCCC2)s1` as the molecule, how does the Potency read?
A: The Potency was inconclusive: 0.146 µM [inhibitor, full curve, poor fit].

Q: Which Potency does the source give for `O=C(NCCc1ccccc1)c1ccc2c(c1)OCO2` here?
A: The Potency was active: 1.12 µM.

Q: With `O=C(C1CC1)N1CCc2cc(Br)cc(S(=O)(=O)N3CCOCC3)c21` as the molecule, how does the Potency read?
A: Its Potency is “inactive”.

Q: With `Cc1cc(C)nc(N2CCN(C(=O)c3ccc(S(=O)(=O)N4CCCCCC4)cc3)CC2)n1` as the molecule, how does the Potency read?
A: Its Potency is “inactive”.

Q: Which Potency does the source give for `CCCSCC(=O)Nc1ncc2c(n1)-c1ccccc1CC2` here?
A: Its Potency is inconclusive: 0.891 µM [inhibitor, full curve, poor fit].

Q: Which Potency does the source give for `CC(=O)c1c(C)nc2ccc([N+](=O)[O-])cc2c1-c1ccccc1` here?
A: The Potency was inconclusive: 2.82 µM [inhibitor, single point].

Q: For `C=CCC1(CC=C)CCCN1C(=O)CC1C(=O)NCCN1Cc1cc(OC)cc(OC)c1` (configuration not stated), which Potency is on record?
A: Its Potency is “inactive”.

Q: With `Cc1nn(Cc2ccccc2Cl)c2sc(C(=O)Nc3ccccc3N3CCOCC3)cc12` as the molecule, how does the Potency read?
A: Its Potency is “inactive”.

Q: For `Cc1cccc(NC(=O)c2sc3nc(-c4ccccc4)cn3c2C)n1`, which Potency is on record?
A: Its Potency is inconclusive: 16.4 µM [inhibitor, single point].

Q: Which Potency does the source give for `O=C(O)CC[N+](=O)[O-]` here?
A: The Potency was “inactive”.

Q: For `Nn1cnc2c(c1=O)C1(CCCCC1)Cc1ccccc1-2`, which Potency is on record?
A: The Potency was “inactive”.

Q: For `CCNS(=O)(=O)c1ccc(CCC(=O)O)cc1`, which Potency is on record?
A: The Potency was inconclusive: 35.5 µM [activator, single point].

Q: For `COc1ccc(C2NC(=O)N(C)C3=C2C(=O)N(c2ccc(F)cc2)C3)cc1` (configuration not stated), which Potency is on record?
A: The Potency was inconclusive: 35.5 µM [inhibitor, single point].

Q: For `O=C(O)c1ccc(NC(=S)NC(=O)c2ccc(-c3ccccc3)cc2)cc1`, which Potency is on record?
A: Its Potency is “inactive”.

Q: Which Potency does the source give for `COc1ccc(NC(=S)N(CCc2ccc(OC)c(OC)c2)Cc2ccccn2)cc1` here?
A: The Potency was “inactive”.

Q: Which Potency does the source give for `O=C(NCCc1nc2ccccc2n1CCCOc1ccc(Cl)cc1)C1CCCCC1` here?
A: The Potency was inconclusive: 35.5 µM [inhibitor, single point].

Q: For `C=CCn1c(C23CC4CC(CC(C4)C2)C3)n[nH]c1=S`, which Potency is on record?
A: Its Potency is inconclusive: 7.94 µM [inhibitor, partial curve, poor fit].

Q: Which Potency does the source give for `Cc1ccc(C(O)(C(=O)NNc2ccc3ccccc3n2)c2ccc(C)cc2)cc1` here?
A: Its Potency is inconclusive: 29.1 µM [inhibitor, single point].

Q: Which Potency does the source give for `Cc1ccc(S(=O)(=O)Nc2ccc(N3CCOCC3)nc2)cc1` here?
A: Its Potency is inconclusive: 22.4 µM [inhibitor, single point].

Q: Which Potency does the source give for `Cc1cc(NC(=O)c2ccc(Cl)cc2)c(C)cc1O` here?
A: The Potency was “inactive”.

Q: With `O=C(CCSc1nnc(-c2ccco2)o1)Nc1ccccc1` as the molecule, how does the Potency read?
A: The Potency was “inactive”.

Q: Which Potency does the source give for `O=c1[nH]c(=O)n(Cc2ccc(F)cc2)c(O)c1/C=N/Nc1ccccc1` here?
A: Its Potency is inconclusive: 3.16 µM [inhibitor, full curve].

Q: Which Potency does the source give for `CCN(CC)CCOC(=O)c1ccc(NC(=O)CCCN2C(=O)S/C(=C/c3ccc(OC)cc3)C2=S)cc1` here?
A: Its Potency is inconclusive: 1.58 µM [inhibitor, partial curve, poor fit].

Q: Which Potency does the source give for `Cc1cc(C(=O)COC(=O)c2nccnc2N)c(C)n1C` here?
A: The Potency was inconclusive: 12.6 µM [inhibitor, single point].

Q: With `O=C(Nc1nnc(-c2ccco2)o1)c1ccc(N2C(=O)CCC2=O)cc1` as the molecule, how does the Potency read?
A: Its Potency is inconclusive: 35.5 µM [inhibitor, single point].

Q: Which Potency does the source give for `COC(=O)/C(=C/c1cn(C(C)=O)c2ccccc12)[N+](=O)[O-]` here?
A: The Potency was “inactive”.

Q: Which Potency does the source give for `CCOC(=O)Cn1cncc1-c1ccc([N+](=O)[O-])cc1` here?
A: Its Potency is inconclusive: 20 µM [activator, single point].

Q: With `O=C(O)CCSc1nnc(CNc2ccc(Cl)cc2)n1Cc1ccccc1` as the molecule, how does the Potency read?
A: The Potency was inconclusive: 1.26 µM [activator, single point].

Q: With `COc1ccc(NC(=O)C2CC(=O)N(C)C(=Nc3ccc4c(c3)OCO4)S2)cc1` (configuration not stated) as the molecule, how does the Potency read?
A: The Potency was inconclusive: 7.3 µM [inhibitor, partial curve, poor fit].

Q: Which Potency does the source give for `COc1ccccc1N1CCN(C(=O)c2cc3cc(C)ccc3[nH]2)CC1` here?
A: The Potency was inconclusive: 3.16 µM [inhibitor, partial curve, poor fit].

Q: Which Potency does the source give for `Cc1ccccc1C(=O)NC1CC2CCCC(C1)N2C(=O)Nc1ccccc1` (configuration not stated) here?
A: Its Potency is “inactive”.

Q: Which Potency does the source give for `COc1ccc(-c2csc(N(CC3CCCO3)C(=O)c3cccs3)n2)cc1` (configuration not stated) here?
A: The Potency was inconclusive: 32.6 µM [inhibitor, single point].

Q: With `CCOc1ccc(Nc2cc(C)nc(-n3nc(C)cc3C)n2)cc1` as the molecule, how does the Potency read?
A: Its Potency is inconclusive: 7.94 µM [inhibitor, partial curve, poor fit].

Q: Which Potency does the source give for `CC(NS(=O)(=O)/C=C/c1ccccc1)C(=O)NCCc1ccc(S(N)(=O)=O)cc1` (configuration not stated) here?
A: The Potency was “inactive”.

Q: Which Potency does the source give for `Cc1ccc(C(=O)c2c(NC(=O)CSc3nnc(N)s3)sc3c2CCCC3)cc1` here?
A: The Potency was inconclusive: 35.5 µM [inhibitor, partial curve, poor fit].
